{"source": "paper PMC10481361", "about": "“Structural insight into G-protein chaperone-mediated maturation of a bacterial adenosylcobalamin-dependent mutase” (The Journal of Biological Chemistry, 2023)", "binders": {"B1": {"name": "Cupriavidus metallidurans isobutyryl-CoA mutase fused (IcmF), wild type (enzyme, UniProt Q1LRY0 1-1093, looked up)", "chain": "MTDLSDVSRTAAAKPPAVPGRGPANKVRFVTAASLFDGHDASINIMRRILQSQGCEVIHLGHNRSVQEVVTAALQEDVQGIAISSYQGGHVEYFKYMIDLLREHGGEHIQVFGGGGGVIVPDEIRELQAYGVARIYSPEDGQRMGLAGMITDMAQRCDIDLTRYAPTTLDTVVAGDRRALAQLITALENGKADPELVSALHAQAKAAAVPVLGITGTGGAGKSSLTDELIRRFRLDQDDALSIAVISIDPSRRKSGGALLGDRIRMNAINHPNIFMRSLATREAGSEISQALPDVIAACKAARFDLVIVETSGIGQGDAAIVPHVDLSLYVMTPEFGAASQLEKIDMLDFADFVAINKFDRKGAQDAWRDVAKQVQRNREQWHSRAEDMPVYGTQASRFNDDGVTMLYQGLVGALGARGMSLKPGTLPNLEGRISTGQNVIVPPARSRYLAELADTVRAYHRRVVAQSKLARERQQLRAAHDMLQGAGHESAALETLASERDVSLGAVERKLLAMWPQMQQAYSGDEYVVKIRDKEIRTGLISTTLSGTKIRKVVLPRFEDEGEILKWLMRENVPGSFPYTAGVFAFKREGEDPTRMFAGEGDAFRTNRRFKLVSEGMEAKRLSTAFDSVTLYGEDPHERPDIYGKVGNSGVSIATLEDMKVLYDGFDLTNPSTSVSMTINGPAPTILAMFMNTAIDQQIDRFRADNGRDPTADEEAKIRAWVLQNVRGTVQADILKEDQGQNTCIFSTEFSLKVMGDIQEYFVHHQVRNFYSVSISGYHIAEAGANPISQLAFTLANGFTYVEAYLARGMHIDDFAPNLSFFFSNGMDPEYSVLGRVARRIWAVTMRDKYGANDRSQKLKYHIQTSGRSLHAQEIDFNDIRTTLQALIAIYDNCNSLHTNAYDEAITTPTAESVRRALAIQLIINREWGVAKCENPNQGSFLIEELTDLVEEAVLQEFERIAERGGVLGAMETGYQRGKIQEESLYYEQLKHDGTLPIIGVNTFRNPNGDPTPQTLELARSSEDEKQSQLHRLTEFHGAHQADAEAMLARLRQAVIDNRNVFAVLMDAVRVCSLGQITHALFEVGGQYRRNM", "notes": "Isobutyryl-CoA mutase fused (IcmF) of Cupriavidus metallidurans; Resting state is a homodimer; dimers join through their G-protein domains into higher-order oligomers; The plasmid has a thrombin cleavage site after the His-tag; no cleavage is described; also called wt IcmF; cmIcmF; source: E. coli BL21 T7 Express, purified (Ni-NTA, MonoQ, SEC)"}}, "key": {"[1]": {"molecular_target": "Cupriavidus metallidurans isobutyryl-CoA mutase fused (IcmF), wild type (Cupriavidus metallidurans) (UniProt Q1LRY0)", "test": "condition: only with no nucleotide or with 500 μM GDP, with AdoCbl or OHCbl (dimer with dimer; 20 ng/μl IcmF); negative stain EM; 20 ng/μl wt IcmF with 500 μM AdoCbl (dark or exposed to light) or OHCbl, no nucleotide or 500 μM GDP; both purified"}, "[2]": {"molecular_target": "Cupriavidus metallidurans isobutyryl-CoA mutase fused (IcmF), wild type (Cupriavidus metallidurans) (UniProt Q1LRY0)", "test": "condition: only with no nucleotide or with 500 μM GDP (dimer with dimer; 20 ng/μl IcmF); negative stain EM; 20 ng/μl wt IcmF in 20 mM Hepes pH 8, 50 mM NaCl, no nucleotide or 500 μM GDP (30 min on ice); dimer seen, dimer with dimer not seen; both purified"}}, "note": "These are yes or no findings as the source states them, for the method shown. Sequences can lack the tags named with a protein."}
{"binder": "B1", "values": [{"measurement": "binding", "setting": "[1]", "value": "no binding"}, {"measurement": "binding", "setting": "[2]", "value": "no binding"}]}
